# Results reported in PubChem BioAssay.
# The list shows a part of the results.
# Legend:
# Experiment in all cases: modulators of RGS–Galpha-o binding, primary screen, biochemical, multiplexed beads, flow cytometry, RGS4/7/8/16/19 (AID 1504);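 further: fluorescently labeled Galpha-o bound to GDP with aluminium fluoride binding biotinylated RGS beads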
# [1] = molecular target: Regulator of G-protein signaling 16 (Homo sapiens) (UniProt O15492); settings: multiplexed bead flow cytometry, measured here: RGS16 interaction, at 10 µM
# [2] = molecular target: Regulator of G-protein signaling 19 (Homo sapiens) (UniProt P49795); settings: multiplexed bead flow cytometry, measured here: RGS19 interaction, at 10 µM
# [3] = molecular target: Regulator of G-protein signaling 7 (Homo sapiens) (UniProt P49802); settings: multiplexed bead flow cytometry, measured here: RGS7 interaction, at 10 µM
# [4] = molecular target: Regulator of G-protein signaling 8 (Homo sapiens) (UniProt P57771); settings: multiplexed bead flow cytometry, measured here: RGS8 interaction, at 10 µM
structure (smiles),measurement,setting,value
O=C(NCC1(N2CCOCC2)CCCCC1)c1cc2ccccc2o1,RGS16–Galpha-o binding response,[1],328%
same,RGS19–Galpha-o binding response,[2],103%
same,RGS7–Galpha-o binding response,[3],177%
same,RGS8–Galpha-o binding response,[4],137%
